PubChem BioAssay AID1259308, NCATS, 2017

Purpose: 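Genes whose loss raises luciferase production in HEK293 cells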 (primary screen)
Cells: human HEK293 embryonic kidney cells stably expressing firefly luciferase (HEK-CMV-Luc2-Hygro)
Reagents: single siRNA against human genes, 0.8 pmol siRNA per well
Timing: 72 h
Detection: 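Luciferase light (ONE-Glo) measured on one replicate plate set and viability (CellTiter-Glo) on the other, scaled to a negative control siRNA, with robust z-scores and luciferase per cell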
Scale: total luciferase, z-score and total luciferase, % of control: higher = more reporter protein produced
Rule for the call: 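An siRNA counts as active if its total luciferase robust z-score exceeds 3; genes with two or more such siRNAs out of three were retested with fresh siRNAs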
Meaning of the calls: active = raised luciferase; inactive = no rise
In all, the deposit lists about 59,000 reagents; below is a part drawn at random. In the full data, about 1,510 (2.6%) got an active call. 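Calls use total luciferase alone and ignore viability, so some active siRNAs may act by altering cell number.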 Unmarked entries are inactive. Reagents against one gene are numbered here. Not all columns of the deposit are shown.

{"Target gene": "HSPA6 (heat shock protein family A (Hsp70) member 6)", "reagent no.": 1, "total luciferase, z-score": -0.343, "total luciferase, % of control": 75.1}
{"Target gene": "HSPA6 (heat shock protein family A (Hsp70) member 6)", "reagent no.": 2, "total luciferase, z-score": -0.439, "total luciferase, % of control": 73.1}
{"Target gene": "HSPA6 (heat shock protein family A (Hsp70) member 6)", "reagent no.": 3, "total luciferase, z-score": 0.256, "total luciferase, % of control": 87}
{"Target gene": "C12orf60 (chromosome 12 open reading frame 60)", "reagent no.": 1, "total luciferase, z-score": -1.26, "total luciferase, % of control": 56.8}
{"Target gene": "C12orf60 (chromosome 12 open reading frame 60)", "reagent no.": 2, "total luciferase, z-score": -0.072, "total luciferase, % of control": 80.5}
{"Target gene": "C12orf60 (chromosome 12 open reading frame 60)", "reagent no.": 3, "total luciferase, z-score": -0.88, "total luciferase, % of control": 64.4}
{"Target gene": "DRC2 (dynein regulatory complex subunit 2)", "reagent no.": 1, "total luciferase, z-score": -0.274, "total luciferase, % of control": 76.4}
{"Target gene": "DRC2 (dynein regulatory complex subunit 2)", "reagent no.": 2, "total luciferase, z-score": -0.201, "total luciferase, % of control": 77.9}
{"Target gene": "DRC2 (dynein regulatory complex subunit 2)", "reagent no.": 3, "total luciferase, z-score": -0.938, "total luciferase, % of control": 63.2}

Taken from above.
For “total luciferase, z-score”, DRC2 (dynein regulatory complex subunit 2) #1 shows -0.274
DRC2 (dynein regulatory complex subunit 2) #3, total luciferase, % of control: 63.2

Continued:
{"Target gene": "UVSSA (UV stimulated scaffold protein A)", "reagent no.": 1, "total luciferase, z-score": -1.14, "total luciferase, % of control": 59.1}
{"Target gene": "UVSSA (UV stimulated scaffold protein A)", "reagent no.": 2, "total luciferase, z-score": 0.493, "total luciferase, % of control": 91.7}
{"Target gene": "UVSSA (UV stimulated scaffold protein A)", "reagent no.": 3, "total luciferase, z-score": -0.568, "total luciferase, % of control": 70.6}
{"Target gene": "SLC2A5", "reagent no.": 1, "total luciferase, z-score": 1.26, "total luciferase, % of control": 107}
{"Target gene": "SLC2A5", "reagent no.": 2, "total luciferase, z-score": -1.89, "total luciferase, % of control": 44.3}
{"Target gene": "SLC2A5", "reagent no.": 3, "total luciferase, z-score": -1.04, "total luciferase, % of control": 61.2}
{"Target gene": "MS4A13 (membrane spanning 4-domains A13)", "reagent no.": 1, "total luciferase, z-score": -1.16, "total luciferase, % of control": 58.9}
{"Target gene": "MS4A13 (membrane spanning 4-domains A13)", "reagent no.": 2, "total luciferase, z-score": 1.47, "total luciferase, % of control": 111}
{"Target gene": "MS4A13 (membrane spanning 4-domains A13)", "reagent no.": 3, "total luciferase, z-score": 0.0187, "total luciferase, % of control": 82.3}
{"Target gene": "HMX1 (H6 family homeobox 1)", "reagent no.": 1, "total luciferase, z-score": 0.118, "total luciferase, % of control": 84.2}
{"Target gene": "HMX1 (H6 family homeobox 1)", "reagent no.": 2, "total luciferase, z-score": -0.428, "total luciferase, % of control": 73.4}
{"Target gene": "HMX1 (H6 family homeobox 1)", "reagent no.": 3, "total luciferase, z-score": 1.48, "total luciferase, % of control": 111}
